# Source: the supplement of paper PMC8728848
# The list shows a part of the results.
# B1: CcfD (Bacteroides vulgatus), A6KYX8 (protein)
# chain: MKYKNYFKSIIYLALGAFTLGSCEDFLDRQEDEKLTFDKIWESRNTTQQYWLNAMSFLPNENGSLQGDTEPYLGASDECTIAYDRQYRWINFGTWNPSQVPYYKMDHYYKGIRECNIFLQNVYKCSDPLVTKDQLDEWYWQTRFARAYYYFLMMRDYGPVFLLGDDLLDFTASTEELYRPRNTWDQCVNYVVSEMTQCAESGVVLQQSDLPAAKWGLATVGTCHAVISRLLLYSARPLFNGNKLYSTVKNPDAPDFPELSGVKLFPELDNTKWQKAAEAAKKLIDNPCYELYRAGNDNPYEDYYGVTHETWNKELIWTDRYNGLFSWGVGTVPTGVAGTAYGAVGPTQALVDAYAMNTGWYPITGYEADGTPIVEPLSGYELASELEKSSWIYPSGGWSNKADFEIEAPNMYKDREPRFYVTVFFGGNQWLHGNSATSISFAKGGNGNKSHDYPKSGYLCNRFYDHKLNSSEGQWGNITFPVFRLGEIYLNFIEAVLECKKNGVALDPSYEALAMEKWADLRKRAGLDPITSIYGQVSTEELIQLCRKERQIELAFERHRYFDTRTWMIATQTDNGKMYGMNTSCPLDAGMKGTETPDGFWERTAFETRVFQNKHYLYPFSQRELDRNKLLTQNYGW
# How the values were obtained:
# Assay in all cases: glycan array binding signal (z-score within array); higher = stronger binding
# Details in all cases: glycan notation: IUPAC condensed, linker removed
# [1] = target: Neu5Ac(a2-3)Gal(b1-3)GlcNAc(b1-6)GalNAc
# In short: (§1)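 The binding signal is a Z-score computed within each array and averaged over linkers. Arrays of the same protein sequence at different concentrations or buffers were also averaged together. Data originate from 3228 arrays in the Consortium for Functional Glycomics database, kept only where the protein sequence was available.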
# [2] = target: Neu5Ac(a2-3)Gal(b1-3)GlcNAc6S
# In short: as §1
# [3] = target: Neu5Ac(a2-3)Gal(b1-3)[Fuc(a1-4)]GlcNAc
# In short: as §1
# [4] = target: Neu5Ac(a2-3)Gal(b1-3)[Fuc(a1-4)]GlcNAc(b1-3)Gal(b1-3)[Fuc(a1-4)]GlcNAc
# In short: as §1
# [5] = target: Neu5Ac(a2-3)Gal(b1-3)[Fuc(a1-4)]GlcNAc(b1-3)Gal(b1-4)[Fuc(a1-3)]GlcNAc
# In short: as §1
# [6] = target: Neu5Ac(a2-3)Gal(b1-3)[GlcNAc(b1-6)]GalNAc
# In short: as §1
# [7] = target: Neu5Ac(a2-3)Gal(b1-3)[Neu5Ac(a2-6)]GalNAc
# In short: as §1
# [8] = target: Neu5Ac(a2-3)Gal(b1-3)[Neu5Ac(a2-6)]GlcNAc(b1-3)[Fuc(a1-3)[Gal(b1-4)]GlcNAc(b1-6)]Gal(b1-4)Glc
# In short: as §1
# [9] = target: Neu5Ac(a2-3)Gal(b1-3)]Neu5Ac(a2-3)Gal(b1-4)]GlcNAc
# In short: as §1
# Neu5Ac(a2-3)Gal(b1-4)Glc = target: Neu5Ac(a2-3)Gal(b1-4)Glc
# In short: as §1
# [10] = target: Neu5Ac(a2-3)Gal(b1-4)GlcNAc
# In short: as §1
# [11] = target: Neu5Ac(a2-3)Gal(b1-4)GlcNAc(b1-2)Man
# In short: as §1
# [12] = target: Neu5Ac(a2-3)Gal(b1-4)GlcNAc(b1-2)Man(a1-3)[GlcNAc(b1-4)][Neu5Ac(a2-3)Gal(b1-4)GlcNAc(b1-2)Man(a1-6)]Man(b1-4)GlcNAc(b1-4)GlcNAc
# In short: as §1
# [13] = target: Neu5Ac(a2-3)Gal(b1-4)GlcNAc(b1-2)Man(a1-3)[Neu5Ac(a2-3)Gal(b1-4)GlcNAc(b1-2)Man(a1-6)]Man(b1-4)GlcNAc(b1-4)GlcNAc
# In short: as §1
# [14] = target: Neu5Ac(a2-3)Gal(b1-4)GlcNAc(b1-2)Man(a1-3)[Neu5Ac(a2-3)Gal(b1-4)GlcNAc(b1-2)Man(a1-6)]Man(b1-4)GlcNAc(b1-4)[Fuc(a1-6)]GlcNAc
# In short: as §1
# [15] = target: Neu5Ac(a2-3)Gal(b1-4)GlcNAc(b1-2)Man(a1-3)[Neu5Ac(a2-6)Gal(b1-4)GlcNAc(b1-2)Man(a1-6)]Man(b1-4)GlcNAc(b1-4)GlcNAc
# In short: as §1
# [16] = target: Neu5Ac(a2-3)Gal(b1-4)GlcNAc(b1-2)[Neu5Ac(a2-3)Gal(b1-4)GlcNAc(b1-4)]Man(a1-3)[GlcNAc(b1-4)][Neu5Ac(a2-3)Gal(b1-4)GlcNAc(b1-2)[Neu5Ac(a2-3)Gal(b1-4)GlcNAc(b1-6)]Man(a1-6)]Man(b1-4)GlcNAc(b1-4)GlcNAc
# In short: as §1
# [17] = target: Neu5Ac(a2-3)Gal(b1-4)GlcNAc(b1-2)[Neu5Ac(a2-3)Gal(b1-4)GlcNAc(b1-4)]Man(a1-3)[GlcNAc(b1-4)][Neu5Ac(a2-3)Gal(b1-4)GlcNAc(b1-4)Man(a1-6)]Man(b1-4)GlcNAc(b1-4)GlcNAc
# In short: as §1
# [18] = target: Neu5Ac(a2-3)Gal(b1-4)GlcNAc(b1-2)[Neu5Ac(a2-3)Gal(b1-4)GlcNAc(b1-6)]Man(a1-6)[Neu5Ac(a2-3)Gal(b1-4)GlcNAc(b1-2)Man(a1-3)][GlcNAc(b1-4)]Man(b1-4)GlcNAc(b1-4)GlcNAc
# In short: as §1
# [19] = target: Neu5Ac(a2-3)Gal(b1-4)GlcNAc(b1-3)Gal
# In short: as §1
# [20] = target: Neu5Ac(a2-3)Gal(b1-4)GlcNAc(b1-3)Gal(b1-3)GlcNAc
# In short: as §1
# [21] = target: Neu5Ac(a2-3)Gal(b1-4)GlcNAc(b1-3)Gal(b1-4)GlcNAc
# In short: as §1
# [22] = target: Neu5Ac(a2-3)Gal(b1-4)GlcNAc(b1-3)Gal(b1-4)GlcNAc(b1-2)Man(a1-3)[Neu5Ac(a2-3)Gal(b1-4)GlcNAc(b1-3)Gal(b1-4)GlcNAc(b1-2)Man(a1-6)]Man(b1-4)GlcNAc(b1-4)GlcNAc
# In short: as §1
# [23] = target: Neu5Ac(a2-3)Gal(b1-4)GlcNAc(b1-3)Gal(b1-4)GlcNAc(b1-3)Gal(b1-4)GlcNAc
# In short: as §1
# [24] = target: Neu5Ac(a2-3)Gal(b1-4)GlcNAc(b1-3)Gal(b1-4)GlcNAc(b1-3)Gal(b1-4)GlcNAc(b1-2)Man(a1-3)[Neu5Ac(a2-3)Gal(b1-4)GlcNAc(b1-3)Gal(b1-4)GlcNAc(b1-3)Gal(b1-4)GlcNAc(b1-2)Man(a1-6)]GalNAc
# In short: as §1
# [25] = target: Neu5Ac(a2-3)Gal(b1-4)GlcNAc(b1-3)Gal(b1-4)GlcNAc(b1-3)GalNAc
# In short: as §1
# [26] = target: Neu5Ac(a2-3)Gal(b1-4)GlcNAc(b1-3)Gal(b1-4)GlcNAc(b1-3)[Neu5Ac(a2-3)Gal(b1-4)GlcNAc(b1-3)Gal(b1-4)GlcNAc(b1-6)]GalNAc
# In short: as §1
# [27] = target: Neu5Ac(a2-3)Gal(b1-4)GlcNAc(b1-3)Gal(b1-4)GlcNAc(b1-6)[Gal(b1-3)]GalNAc
# In short: as §1
# [28] = target: Neu5Ac(a2-3)Gal(b1-4)GlcNAc(b1-3)Gal(b1-4)[Fuc(a1-3)]GlcNAc
# In short: as §1
# [29] = target: Neu5Ac(a2-3)Gal(b1-4)GlcNAc(b1-3)GalNAc
# In short: as §1
binder,measurement,setting,value
B1,glycan array binding signal (z-score),[1],-0.795
same,glycan array binding signal (z-score),[2],0.979
same,glycan array binding signal (z-score),[3],-0.297
same,glycan array binding signal (z-score),[4],-0.205
same,glycan array binding signal (z-score),[5],0.099
same,glycan array binding signal (z-score),[6],-0.393
same,glycan array binding signal (z-score),[7],0.303
same,glycan array binding signal (z-score),[8],0.303
same,glycan array binding signal (z-score),[9],-0.581
same,glycan array binding signal (z-score),Neu5Ac(a2-3)Gal(b1-4)Glc,-0.589
same,glycan array binding signal (z-score),[10],-0.647
same,glycan array binding signal (z-score),[11],0.435
same,glycan array binding signal (z-score),[12],-0.698
same,glycan array binding signal (z-score),[13],-0.978
same,glycan array binding signal (z-score),[14],0.242
same,glycan array binding signal (z-score),[15],-0.16
same,glycan array binding signal (z-score),[16],-0.612
same,glycan array binding signal (z-score),[17],-0.795
same,glycan array binding signal (z-score),[18],-0.404
same,glycan array binding signal (z-score),[19],1.96
same,glycan array binding signal (z-score),[20],0.348
same,glycan array binding signal (z-score),[21],-0.536
same,glycan array binding signal (z-score),[22],-0.932
same,glycan array binding signal (z-score),[23],-0.815
same,glycan array binding signal (z-score),[24],-0.592
same,glycan array binding signal (z-score),[25],-0.693
same,glycan array binding signal (z-score),[26],-0.429
same,glycan array binding signal (z-score),[27],-0.957
same,glycan array binding signal (z-score),[28],-0.165
same,glycan array binding signal (z-score),[29],-0.551
